Assay [1] concerns the target Flag-NP (nucleoprotein of PR8 H1N1 virus) (influenza A virus A/Puerto Rico/8/1934 (H1N1)) (UniProt P03466). Briefly: co-IP.
Assay [2] addresses Flag-PB1 (polymerase basic protein 1 of PR8 H1N1 virus) (influenza A virus A/Puerto Rico/8/1934 (H1N1)) (UniProt P03431). Briefly: co-IP.

The chains behind the UniProt entries cited, without tags or fusion partners.
UniProt P03466: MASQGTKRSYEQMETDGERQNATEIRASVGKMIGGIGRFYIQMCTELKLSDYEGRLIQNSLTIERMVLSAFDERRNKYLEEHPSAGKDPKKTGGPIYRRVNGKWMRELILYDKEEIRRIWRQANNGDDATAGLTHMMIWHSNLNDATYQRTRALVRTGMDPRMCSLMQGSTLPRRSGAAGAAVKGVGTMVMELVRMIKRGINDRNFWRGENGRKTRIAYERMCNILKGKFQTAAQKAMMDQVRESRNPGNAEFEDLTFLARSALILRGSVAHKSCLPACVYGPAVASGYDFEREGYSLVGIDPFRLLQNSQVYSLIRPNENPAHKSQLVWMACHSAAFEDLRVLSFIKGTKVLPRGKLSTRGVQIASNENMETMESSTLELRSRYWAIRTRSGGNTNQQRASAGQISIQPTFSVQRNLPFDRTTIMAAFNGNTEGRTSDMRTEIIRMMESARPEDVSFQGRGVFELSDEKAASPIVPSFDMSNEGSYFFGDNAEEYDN
UniProt P03431: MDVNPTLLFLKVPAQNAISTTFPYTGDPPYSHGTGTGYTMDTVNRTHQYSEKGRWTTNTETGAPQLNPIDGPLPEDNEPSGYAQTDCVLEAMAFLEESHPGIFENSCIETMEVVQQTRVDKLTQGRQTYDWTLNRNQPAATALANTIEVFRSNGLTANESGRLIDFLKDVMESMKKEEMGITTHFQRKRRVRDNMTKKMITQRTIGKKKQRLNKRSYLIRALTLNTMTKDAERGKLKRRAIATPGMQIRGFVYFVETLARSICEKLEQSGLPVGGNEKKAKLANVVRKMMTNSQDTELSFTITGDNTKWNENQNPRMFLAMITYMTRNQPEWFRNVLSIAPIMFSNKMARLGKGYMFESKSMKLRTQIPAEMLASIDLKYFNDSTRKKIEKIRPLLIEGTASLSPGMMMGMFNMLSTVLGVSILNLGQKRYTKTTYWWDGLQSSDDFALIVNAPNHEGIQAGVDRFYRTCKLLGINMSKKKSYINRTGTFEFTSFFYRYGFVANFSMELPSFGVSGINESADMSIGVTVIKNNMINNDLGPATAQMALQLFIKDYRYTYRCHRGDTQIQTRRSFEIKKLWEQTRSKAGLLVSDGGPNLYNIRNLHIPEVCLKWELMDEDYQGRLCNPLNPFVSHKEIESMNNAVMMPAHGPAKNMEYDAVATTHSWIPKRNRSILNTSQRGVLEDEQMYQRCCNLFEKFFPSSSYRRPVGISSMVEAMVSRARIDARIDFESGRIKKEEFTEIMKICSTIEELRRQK

Results are given in words; binding and its absence hold for the method and conditions named. Binding seen in cells or lysates may run through a third protein. Some binding calls cover weakened binding; strength is not graded here. Sequences can lack the tags named with a protein.

B1: HA-NUP85 (nucleoporin 85) (protein, UniProt Q9BW27 1-656)
chain: MEELDGEPTVTLIPGVNSKKNQMYFDWGPGEMLVCETSFNKKEKSEMVPSCPFIYIIRKDVDVYSQILRKLFNESHGIFLGLQRIDEELTGKSRKSQLVRVSKNYRSVIRACMEEMHQVAIAAKDPANGRQFSSQVSILSAMELIWNLCEILFIEVAPAGPLLLHLLDWVRLHVCEVDSLSADVLGSENPSKHDSFWNLVTILVLQGRLDEARQMLSKEADASPASAGICRIMGDLMRTMPILSPGNTQTLTELELKWQHWHEECERYLQDSTFATSPHLESLLKIMLGDEAALLEQKELLSNWYHFLVTRLLYSNPTVKPIDLHYYAQSSLDLFLGGESSPEPLDNILLAAFEFDIHQVIKECSIALSNWWFVAHLTDLLDHCKLLQSHNLYFGSNMREFLLLEYASGLFAHPSLWQLGVDYFDYCPELGRVSLELHIERIPLNTEQKALKVLRICEQRQMTEQVRSICKILAMKAVRNNRLGSALSWSIRAKDAAFATLVSDRFLRDYCERGCFSDLDLIDNLGPAMMLSDRLTFLGKYREFHRMYGEKRFADAASLLLSLMTSRIAPRSFWMTLLTDALPLLEQKQVIFSAEQTYELMRCLEDLTSRRPVHGESDTEQLQDDDIETTKVEMLRLSLARNLARAIIREGSLEGS
For the molecule B1, the binding result in assay [1] is recorded as “no binding”.

B2: HA-RanBP5 (Ran-binding protein 5) (protein, UniProt O00410 1-1097)
chain: MAAAAAEQQQFYLLLGNLLSPDNVVRKQAEETYENIPGQSKITFLLQAIRNTTAAEEARQMAAVLLRRLLSSAFDEVYPALPSDVQTAIKSELLMIIQMETQSSMRKKVCDIAAELARNLIDEDGNNQWPEGLKFLFDSVSSQNVGLREAALHIFWNFPGIFGNQQQHYLDVIKRMLVQCMQDQEHPSIRTLSARATAAFILANEHNVALFKHFADLLPGFLQAVNDSCYQNDDSVLKSLVEIADTVPKYLRPHLEATLQLSLKLCGDTSLNNMQRQLALEVIVTLSETAAAMLRKHTNIVAQTIPQMLAMMVDLEEDEDWANADELEDDDFDSNAVAGESALDRMACGLGGKLVLPMIKEHIMQMLQNPDWKYRHAGLMALSAIGEGCHQQMEGILNEIVNFVLLFLQDPHPRVRYAACNAVGQMATDFAPGFQKKFHEKVIAALLQTMEDQGNQRVQAHAAAALINFTEDCPKSLLIPYLDNLVKHLHSIMVLKLQELIQKGTKLVLEQVVTSIASVADTAEEKFVPYYDLFMPSLKHIVENAVQKELRLLRGKTIECISLIGLAVGKEKFMQDASDVMQLLLKTQTDFNDMEDDDPQISYMISAWARMCKILGKEFQQYLPVVMGPLMKTASIKPEVALLDTQDMENMSDDDGWEFVNLGDQQSFGIKTAGLEEKSTACQMLVCYAKELKEGFVEYTEQVVKLMVPLLKFYFHDGVRVAAAESMPLLLECARVRGPEYLTQMWHFMCDALIKAIGTEPDSDVLSEIMHSFAKCIEVMGDGCLNNEHFEELGGILKAKLEEHFKNQELRQVKRQDEDYDEQVEESLQDEDDNDVYILTKVSDILHSIFSSYKEKVLPWFEQLLPLIVNLICPHRPWPDRQWGLCIFDDVIEHCSPASFKYAEYFLRPMLQYVCDNSPEVRQAAAYGLGVMAQYGGDNYRPFCTEALPLLVRVIQSADSKTKENVNATENCISAVGKIMKFKPDCVNVEEVLPHWLSWLPLHEDKEEAVQTFNYLCDLIESNHPIVLGPNNTNLPKIFSIIAEGEMHEAIKHEDPCAKRLANVVRQVQTSGGLWTECIAQLSPEQQAAIQELLNSA
Regarding B2, the binding entry in assay [2] was “binds”.

These data come from publication PMC9426659.
